Measurements from PubChem BioAssay AID1347076 (National Center for Advancing Translational Sciences (NCATS), 2019).
Among all 400,000 compounds or so, about 13,000 (3.2%) were called active. The inconclusive results got no clear call from the source; some entries with a clear call stand among them for comparison. Calls come from the whole dose curve; as a rule, active = well fitted cell-killing curve with a large enough effect; inconclusive = small, poorly fitted or top-dose-only effect, or effect the other way; inactive = flat fitted curve, though single readings scatter. A potency beside an inconclusive call is a rough fit, not a confirmed value.

assay: qHTS assay for MDR1-selective chemotherapeutics: Primary screen using the drug-selected MDR subline cells KB-V1; conditions: KB-V1 MDR cells viability, CellTiter-Glo, 72 h; activity change, negative = cytotoxicity: at 46.1 µM (top of the series); note: nearly all actives have a fitted effect of over 60% in size
In short: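 Luminescent ATP read-out (CellTiter-Glo, 10 min) measures survival of drug-selected KB-V1 MDR cells after 72 h, 37 degrees C compound exposure. Medium: phenol-red-free DMEM, 10% FBS. Values from fitted concentration-response curves.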
% is set by controls: 0 for no effect and ±100 for the full control effect; potency is the fitted concentration of half-maximal effect.

Row | SMILES | Potency | activity change, negative = cytotoxicity
1 | N#CCC(CNc1ncc(C(F)(F)F)cc1Cl)OC(=O)c1ccc(Cl)cc1 (stereo not drawn) | inconclusive: 0.184 µM [rising, full curve] | –
2 | CC(C)[C@H](NS(=O)(=O)c1ccccc1)C(=O)Nc1ccccc1N1CCOCC1 | active: 8.2 µM | –
3 | O=C1/C(=C\c2ccc(Br)o2)Cc2ccccc21 | inconclusive: 29.1 µM [cytotoxic, single point] | –
4 | COc1ccc2c(c1)CC=C1C2CCC2(C)C(=O)C(=NO)CC12 (stereo not drawn) | – | inactive: -13.8%
5 | O=C(c1ccco1)N1CCN(CCOCCOc2cccc3ccccc23)CC1 | inconclusive: 20.6 µM [cytotoxic, single point] | –
6 | Cc1ccc(C(=O)N2CCN(c3ncc(C(F)(F)F)cc3Cl)CC2)s1 | inconclusive: 11.6 µM [cytotoxic, partial curve] | –
7 | CC[C@]12c3[nH]c4cc(-c5ccco5)ccc4c3CCN1C(=O)[C@@H](CC(=O)NC(C)(C)C)C[C@@H]2C(=O)N1CCN(C(=O)c2ccco2)CC1 | inconclusive: 32.6 µM [rising, partial curve, poor fit] | –
8 | COc1ccc(-c2c/c(=N\c3nc(-c4ccccc4)c(C)s3)c3ccccc3o2)cc1O | active: 5.8 µM | –
9 | Cc1ccc(S(=O)(=O)N(Cc2ccccc2)c2ccccn2)cc1[N+](=O)[O-] | – | inconclusive: -16.4%
10 | COc1ccc(-c2cc(C3CCN(c4ncccc4[N+](=O)[O-])CC3)[nH]n2)cc1 | inconclusive: 18.4 µM [cytotoxic, partial curve, poor fit] | –
11 | O=C(NCCc1ccccc1)C1CCC(CNc2nc(=S)[nH]c3ccccc23)CC1 (stereo not drawn) | inconclusive: 7.31 µM [cytotoxic, partial curve] | –
12 | COc1ccc(-c2cc(C(F)(F)F)nc(SCCC(=O)Nc3ccc(O)cc3)n2)cc1 | inconclusive: 9.2 µM [cytotoxic, partial curve] | –
13 | Cc1cc(NC(=O)/C(C#N)=C\c2ccc(-c3ccc(SC(F)F)cc3)o2)n(-c2ccccc2)n1 | – | inactive: 8.99%
14 | COc1ccc(CNS(=O)(=O)c2ccc(-c3ccc(=O)[nH]n3)s2)cc1OC | – | inactive: 7.09%
15 | CN(C)C(=O)COC(=O)c1cccc(CN2C(=O)c3ccccc3C2=O)c1 | – | inactive: 6.94%
16 | COc1ccc(CCNC(=O)C2CCN(Cc3nc(-c4ccccc4C)oc3C)CC2)cc1OC | active: 7.31 µM | –
17 | CCCN(CCC)S(=O)(=O)c1ccc(N2CCCCS2(=O)=O)cc1 | – | inactive: -3.79%
18 | CN(C)C(=O)CSc1nc(-c2ccccc2)nc2c1CCCC2 | inconclusive: 11.6 µM [cytotoxic, partial curve] | –
19 | O=C(Nc1ccnn1C1CCN(CC(O)CO)CC1)C1CCCC1 (stereo not drawn) | inconclusive: 18.4 µM [rising, partial curve, poor fit] | –
20 | COc1cccc(CCc2nnc(CCC(=O)NCCc3cccc(C)n3)o2)c1 | inconclusive: 14.6 µM [rising, partial curve] | –
21 | COc1ccc(CNc2oc(-c3cccc4ccccc34)nc2C#N)cc1 | – | inactive: -25.8%
22 | Cc1cc(C)c(S(=O)(=O)N2CCN(C(=O)c3ccc(-n4cncn4)c([N+](=O)[O-])c3)CC2)c(C)c1 | inconclusive: 13 µM [cytotoxic, partial curve] | –
23 | Cc1nc2sccn2c1-c1csc(NCc2ccccc2)n1 | active: 13 µM | –

Row | SMILES | Potency | activity change, negative = cytotoxicity
24 | CC(c1ccco1)N(C(=O)C12CC3(C)CC(C)(CC(C)(C3)C1)C2)c1ccccn1 (stereo not drawn) | inconclusive: 11.6 µM [cytotoxic, partial curve] | –
25 | Cc1ccc(S(=O)(=O)c2nnn3c2nc(N2CCCCC2)c2ccccc23)cc1 | inconclusive: 32.6 µM [cytotoxic, partial curve, poor fit] | –
26 | Cc1ccc(-c2[nH]nc(N)c2N=Nc2cccc(Cl)c2C)cc1 | inconclusive: 29.1 µM [cytotoxic, single point] | –
27 | CC(Sc1nc2ccccc2c(=O)n1C)C(=O)N(C)C1CCCCC1 (stereo not drawn) | active: 5.8 µM | –
28 | O=C(O)c1ccc(NS(=O)(=O)c2ccc(Cl)c(Cl)c2)cc1O | – | inconclusive: 34.4%
29 | CC(C)(C)C1CCc2c(sc(NC(=O)CSc3ncn[nH]3)c2C#N)C1 (stereo not drawn) | active: 16.4 µM | –
30 | CC(=O)c1c(C)[nH]c(C(=O)CSc2nnc(-c3cccs3)n2Cc2ccccc2)c1C | active: 5.8 µM | –
31 | Cc1cccc(NC(=O)CSCC(=O)Nc2ccccc2N2CCCCC2)c1 | active: 16.4 µM | –
32 | CC(C)c1ccc(NC(=O)C2Cc3ccccc3N2C(=O)c2ccccc2)cc1 (stereo not drawn) | inconclusive: 23.1 µM [cytotoxic, partial curve, poor fit] | –
33 | CC(=O)Nc1ccc(NC(=O)CCCn2cnc3ccccc3c2=O)cc1 | inconclusive: 23.1 µM [rising, partial curve] | –
34 | COc1ccc(Cl)cc1NC(=O)CN(C)CC(=O)N1CC(=O)Nc2ccccc21 | – | inactive: -16.5%
35 | Cc1cc(C)cc(-n2c(C)cc(/C=C3\C(=N)N4N=C(CC(C)C)SC4=NC3=O)c2C)c1 | active: 20.6 µM | –
36 | O=C(Cn1nc(-c2ccc(Cl)cc2)ccc1=O)NCCCN1CCN(Cc2ccccc2)CC1 | inconclusive: 13 µM [cytotoxic, partial curve] | –
37 | COc1ccc(CCNC(=O)c2ccc(Cl)cc2Cl)cc1OC | inconclusive: 25.9 µM [cytotoxic, single point] | –
38 | Cc1ccc(O)c(-c2cc(-c3ccccc3C)[nH]n2)c1 | inconclusive: 25.9 µM [cytotoxic, partial curve, poor fit] | –
39 | Cc1cc(Cl)ccc1NC(=O)CN1C(=O)CSc2ccc(S(=O)(=O)N3CCOCC3)cc21 | inconclusive: 0.92 µM [cytotoxic, full curve, poor fit] | –
40 | O=C(Nc1ncc(Cc2ccccc2)s1)C1=NCCN1 | inconclusive: 16.4 µM [cytotoxic, single point] | –
41 | CCNC(=O)COC(=O)/C=C/c1cccc(F)c1 | inconclusive: 0.58 µM [rising, full curve, poor fit] | –
42 | CCOC(=O)c1ccc(NC(=S)N2CCSC2c2ccc(OC)cc2)cc1 (stereo not drawn) | active: 18.4 µM | –
43 | COC(=O)c1sccc1NC(=O)Cn1cnc2c1c(=O)n(C)c(=O)n2C | inconclusive: 10.3 µM [cytotoxic, partial curve, poor fit] | –
44 | COc1cccc(-c2nc(NC(C)(C)C)c3ccccc3n2)c1O | active: 23.1 µM | –
45 | O=C(Nc1ccc(Br)cc1)c1ccc(Cl)c(S(=O)(=O)N2CCCCCC2)c1 | inconclusive: 3.66 µM [cytotoxic, full curve, poor fit] | –
46 | NC1CCc2ccc([N+](=O)[O-])cc21 (stereo not drawn) | – | inactive: 3.11%

Row | SMILES | Potency | activity change, negative = cytotoxicity
47 | COc1ccc(S(=O)(=O)CCC(=O)N2CCN(c3ccc(F)cc3)CC2)cc1 | inconclusive: 18.4 µM [cytotoxic, single point] | –
48 | CCOc1ccc(-n2c(Cc3ccccc3)nnc2SCc2nc(-c3cccs3)no2)cc1 | inconclusive: 0.146 µM [rising, full curve] | –
49 | CCNc1nc(SC(C)C(=O)Nc2ccccc2)nc(N2CCOCC2)n1 (stereo not drawn) | inconclusive: 13 µM [cytotoxic, partial curve, poor fit] | –
50 | CC(/C=N/NC(=O)CNc1n[nH]c(=O)[nH]c1=O)c1ccccc1 (stereo not drawn) | – | inactive: 2.06%
51 | COn1c(SCC(=O)N(C)C)nc2ccccc2c1=O | inconclusive: 20.6 µM [cytotoxic, single point] | –
52 | COc1cc2c(C)nc3onc(-c4ccccc4)c3c2cc1OC | inconclusive: 2.59 µM [cytotoxic, full curve] | –
53 | COc1ccc(N(C(=O)Cn2nnc3ccccc32)C2(C(=O)NC3CCCC3)CCCCC2)cc1 | inconclusive: 7.31 µM [cytotoxic, partial curve, poor fit] | –
54 | COC(=O)c1ccc2nc(-c3ccco3)c(Cc3cccc(F)c3)n2c1 | – | inactive: 1.88%
55 | CCC(C(=O)NCc1ccccc1OC)c1ccccc1 (stereo not drawn) | inconclusive: 23.1 µM [cytotoxic, single point] | –
56 | Cc1ccn2c(Nc3c(C)cccc3C)c(-c3ccc(Cl)s3)nc2c1 | – | inactive: 0.606%
57 | Cc1ccc2[nH]c(C(=O)NN=C3CCCCC3)c(-c3ccccc3)c2c1 | inconclusive: 29.1 µM [cytotoxic, single point] | –
58 | COc1cc(-c2nc(S(=O)(=O)c3ccc(Cl)cc3)c(N3CCOCC3)o2)cc(OC)c1OC | active: 0.517 µM | –
59 | Cc1ccc(NC(=S)N/N=C2\CC(C)(C)Oc3ccc(O)cc32)cc1 | – | inactive: 6.62%
60 | CCCc1cc(=O)oc2cc(C)cc(OCC(=O)Nc3ccccn3)c12 | inconclusive: 20.6 µM [cytotoxic, partial curve] | –
61 | CSc1nc2ccc(Nc3nc(N4CCOCC4)nc(N4CCOCC4)n3)cc2s1 | active: 18.4 µM | –
62 | Cc1cccc(C(=O)NCC(=O)OCc2nnc(-c3ccccc3)o2)c1 | inconclusive: 20.6 µM [rising, partial curve, poor fit] | –
63 | Fc1cccc(Cl)c1C1Nc2cccc3cccc(c23)N1 | inconclusive: 29.1 µM [rising, single point] | –
64 | COC(=O)CN1C(=O)C(C)(C)c2cc(S(=O)(=O)NCc3ccc(Cl)cc3)ccc21 | – | inactive: -18.3%
65 | Cc1ccc(N2CC(C(=O)N3CCC4(CC3)CC(=O)c3ccccc3O4)CC2=O)cc1 (stereo not drawn) | inconclusive: 20.6 µM [cytotoxic, single point] | –
66 | CC(C)N(Cc1ccccc1)C(=O)COC(=O)c1cc[n+]([O-])cc1 | – | inactive: 0%
67 | CCCCN(CCCC)C1=C(C(=O)c2ccccc2)N(CC)S(=O)(=O)c2ccccc21 | inconclusive: 4.61 µM [cytotoxic, full curve, poor fit] | –
68 | CC(=O)c1cccc(CN2CCC(n3nccc3NC(=O)CCOc3ccccc3)CC2)c1 | inconclusive: 13 µM [cytotoxic, partial curve, poor fit] | –

Gathered by group, the compounds so far containing a cyano group.
Row | SMILES | Potency | activity change, negative = cytotoxicity
1 | N#CCC(CNc1ncc(C(F)(F)F)cc1Cl)OC(=O)c1ccc(Cl)cc1 (stereo not drawn) | inconclusive: 0.184 µM [rising, full curve] | –
13 | Cc1cc(NC(=O)/C(C#N)=C\c2ccc(-c3ccc(SC(F)F)cc3)o2)n(-c2ccccc2)n1 | – | inactive: 8.99%
21 | COc1ccc(CNc2oc(-c3cccc4ccccc34)nc2C#N)cc1 | – | inactive: -25.8%
29 | CC(C)(C)C1CCc2c(sc(NC(=O)CSc3ncn[nH]3)c2C#N)C1 (stereo not drawn) | active: 16.4 µM | –
